In PubChem BioAssay AID2685 (National Center for Advancing Translational Sciences (NCATS), 2010) one finds cell number change and AC50 data, which are given here for 61 molecules.

One may read the AC50 as the concentration at which the activity in the assay is half-maximal.

This assay is described as follows: qHTS Assay for Lipid Storage Modulators in Drosophila S3 Cells.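 For cell number change: cells counted by Cell Tracker Red CMTPX staining in the red channel.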 The conditions noted are these: BODIPY lipid droplet fluorescence, 18-24 h; for cell number change: measured here: cell count max response, cells fed with added oleic acid. A digest of the protocol:
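Laser-scanning cytometry quantifies lipid droplet accumulation (500–530 nm total intensity; droplet/cell object ratio) in oleic acid-fed (400 uM added) Drosophila S3 cells treated with a concentration series. 20 uM Triacsin C defined 100% inhibition.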
Background: In qHTS, concentration-response curves come from the screen itself.

Where [1] appears, read: measured here: lipid fluorescence (Fed channel) AC50, cells fed with added oleic acid.
Where [2] appears, read: measured here: cell number channel AC50, cells fed with added oleic acid.

Some of the results follow. Shown are side measurements of this screen, not its main read-out; they come without a call. The list favours compounds with an active or inconclusive main result. Words in brackets tell the shape of the fitted curve; partial curves, single points and poor fits give uncertain potencies.

Turning to `O=C1COc2ccc(S(=O)(=O)CCC(=O)NC3CCCCC3)cc2N1`, the cell number change was determined as 22.4%.

For the molecule `Cc1cc(C)n(-c2cc(-n3nc(C)cc3C)ncn2)n1`, the cell number change was -1.01%. For the same molecule, the AC50 under setting [1] was 6.51 µM [rising, single point].

On to `NNc1nc2c(-c3ccc(F)cc3)nnn2c2ccccc12`, for which the cell number change was 1.56%. For the same molecule, the concentration at half-maximal activity (AC50) under setting [2] was 6.51 µM [rising, single point].

Consider `CCN(CC)S(=O)(=O)c1cccc(NC(=O)COC(=O)C2=COCCO2)c1`, for which the cell number change was -8.03%. For the same molecule, the AC50 under setting [1] is 0.082 µM [falling, full curve, poor fit].

With `COC(=O)c1cc(S(=O)(=O)Nc2c(C)cccc2C)cn1C`, the cell number change is 16.2%. Under setting [1], the concentration at half-maximal activity (AC50) was 0.731 µM [rising, full curve, poor fit].

On to `CCCOc1ccc(C(=O)NNC(=S)NC(=O)CC)cc1`, for which the cell number change was -12.7%. Under setting [1], the AC50 is 29.1 µM [falling, single point].

Turning to `CC(=O)c1ccc(Nc2ccc(-c3ccccc3C)nn2)cc1`, the cell number change is 4.17%. Under setting [1], the AC50 is 16.4 µM [falling, single point].

Consider `CSCC[C@H](NC(=O)N1CCn2c1nc1ccccc12)C(=O)N[C@@H](C(=O)O)c1ccccc1`, for which the cell number change was found to be 24.3%. Under setting [1], the AC50 was 29.1 µM [rising, single point].

In the case of `COc1ccc(OCC(=O)N2CCc3c([nH]c4ccccc34)C2c2ccccn2)cc1` (stereo unspecified), the cell number change is -9.27%.

With `O=C(c1ccc(NS(=O)(=O)c2ccc3c(c2)OCCO3)cc1)N1CCCCC1`, the cell number change was -19.5%.

Turning to `CCOC(=O)/C(N=Nc1c(Br)cc(Br)cc1Br)=C(\C)O`, the cell number change was determined as 31.6%. For the same molecule, the AC50 under setting [2] was 0.103 µM [rising, full curve].

For the molecule `CC(=O)Nc1ccc(NC(=O)c2ccco2)cc1`, the cell number change was -20.4%. Also, the AC50 under setting [2] is 3.26 µM [falling, single point].

Take `CCO[C@H]1OC(C(=O)NCc2nc3ccccc3[nH]2)=C[C@@H](C2CC2)[C@@H]1CCCO`: the cell number change is -13.9%. The half-maximal activity concentration (AC50) under setting [1] is 2.06 µM [rising, single point].

For the molecule `O=C(CSc1nnc(-c2ccccc2Cl)o1)N1CCCC1`, the cell number change is -0.794%. The half-maximal activity concentration (AC50) under setting [1] was 29.1 µM [rising, single point].

`Cn1ncc(Br)c1NC(=O)Nc1ccccc1`: the cell number change is -13.3%. Moreover, the concentration at half-maximal activity (AC50) under setting [1] is 18.4 µM [rising, single point].

Consider `CSCCC(NC(=O)C1CCC(C)CC1)C(=O)NCc1ccco1` (stereo unspecified), for which the cell number change amounted to 0.486%. Besides, the AC50 under setting [2] was 2.06 µM [falling, partial curve]. The AC50 under setting [1] is 2.31 µM [falling, partial curve, poor fit].

As to `COc1cccc(NC(=O)CSc2ccccn2)c1`, the cell number change amounted to 14.9%. Besides, the AC50 under setting [2] is 0.82 µM [rising, full curve, poor fit].

Turning to `O=C(O)c1cn(-c2ccc(F)c(F)c2)c2c(F)c(F)c(F)c(F)c2c1=O`, the cell number change is -0.414%. In addition, under setting [1], the AC50 is 7.31 µM [falling, partial curve].

Regarding `CCCCCNCC(=O)Nc1cccc(C(=O)Nc2cccc(C(F)(F)F)c2)c1`, the cell number change was -60.9%. For the same molecule, under setting [2], the AC50 is 29.1 µM [falling, single point]. For the same molecule, under setting [1], the half-maximal activity concentration (AC50) was 23.1 µM [falling, single point].

As for `CC(C(=O)N1CCc2ccccc2C1)N(c1ccccc1)S(C)(=O)=O` (stereo unspecified), under setting [1], the AC50 was 1.84 µM [falling, partial curve].

As to `C=CCNC(=S)NNC(=O)c1ccco1`, under setting [1], the AC50 was 0.0116 µM [rising, full curve, poor fit].

Regarding `CC(C)(C)NC(=O)C(c1ccc(F)cc1)N(Cc1cccs1)C(=O)c1ccc(CN2CCOCC2)o1` (stereo unspecified), the cell number change was -2.63%. The half-maximal activity concentration (AC50) under setting [1] was 6.51 µM [falling, single point].

With `CCc1nnc(NS(=O)(=O)c2ccc(NC(=S)NC(=O)/C=C/c3cccs3)cc2)s1`, the cell number change was found to be 15.1%. For the same molecule, the AC50 under setting [1] was 0.00411 µM [rising, full curve, poor fit].

Turning to `CCOC(=O)c1nn(-c2ccccc2)c(=O)cc1OCC(=O)Nc1ccccc1OCC`, under setting [1], the half-maximal activity concentration (AC50) is 0.731 µM [rising, full curve].

With `c1ccc(CCNc2ccnc3cc4ccccc4cc23)cc1`, the cell number change was -86.2%. Besides, the AC50 under setting [2] is 20.6 µM [falling, partial curve]. Further, under setting [1], the AC50 is 16.4 µM [falling, partial curve].

As for `CCOC(=O)N1CCN(c2c(NCCc3ccc(OCC)c(OCC)c3)c(=O)c2=O)CC1`, the AC50 runs as follows: under setting [2], 5.8 µM [rising, single point]; under setting [1], 6.51 µM [rising, single point].

As to `CCc1ccccc1NC(=O)N1CCc2ccccc2C1`, the cell number change worked out at 15.7%. The AC50 under setting [1] is 4.61 µM [rising, partial curve, poor fit].

Regarding `O=C(N=C1SC2CS(=O)(=O)CC2N1c1ccc(Cl)cc1Cl)C1CCCO1` (stereo unspecified), the cell number change was -11.3%. The AC50 under setting [1] was 0.651 µM [falling, full curve].

Turning to `COC(=O)CCc1c(C)c(C#N)c2nc3ccccc3n2c1N1CCCC1`, the cell number change worked out at 115%. The AC50 under setting [2] was 3.26 µM [rising, full curve]. For the same molecule, the AC50 under setting [1] is 2.31 µM [rising, partial curve].

Turning to `O=C(O)c1ccc2c(c1)C(=O)N(Cc1ccccc1)C2=O`, the cell number change worked out at 24.4%. For the same molecule, under setting [1], the half-maximal activity concentration (AC50) was 0.13 µM [falling, full curve, poor fit].

`O=C(c1cc(COc2cccc3cnccc23)on1)N1CCC(c2ccccc2Cl)C1` (stereo unspecified): the cell number change was -35.3%. Further, the AC50 under setting [2] was 18.4 µM [falling, partial curve]. The AC50 under setting [1] is 29.1 µM [falling, single point].

Consider `Cc1cccc(C(=O)NC2C(=O)NNC2c2ccc(Cl)cc2)c1` (stereo unspecified), for which the cell number change was 10%. The concentration at half-maximal activity (AC50) under setting [2] is 0.651 µM [falling, full curve]. Further, the AC50 under setting [1] was 0.651 µM [falling, full curve].

`COc1ccc(/C=C(\C#N)C(=O)NCCc2ccccc2)cc1OCc1ccccc1`: the cell number change is -83.3%. Further, the concentration at half-maximal activity (AC50) under setting [2] is 2.06 µM [falling, partial curve].

On to `O=c1cc(-c2ccccc2)cc(-c2ccccc2)n1CCCO`, for which the cell number change came to 21.8%. Also, the AC50 under setting [1] was 13 µM [rising, partial curve, poor fit].

As to `CCC(Sc1nc(C)cc(=O)[nH]1)C(=O)Nc1sc2c(c1C#N)CCCC2` (stereo unspecified), the cell number change was -19.8%.

In the case of `C=CCSc1nc2sc(-c3ccccc3)cc2c(=O)n1N`, the cell number change was -26.3%. The AC50 under setting [1] is 29.1 µM [falling, single point].

Turning to `COc1ccc(CCCc2nnc(SCC(=O)Nc3ccc(C)c(C)c3)o2)cc1`, the cell number change was determined as 72.6%. The AC50 under setting [2] is 13 µM [rising, partial curve].

`COc1cc(/C=C(\C#N)c2ccccn2)ccc1OCC(=O)Nc1ccc(Br)cc1`: the cell number change is -20.4%.

Consider `COc1ccc([N+](=O)[O-])cc1NS(=O)(=O)c1cccc(C(=O)O)c1`, for which the cell number change is -43.3%. For the same molecule, the AC50 under setting [2] was 8.2 µM [falling, partial curve, poor fit]. The concentration at half-maximal activity (AC50) under setting [1] is 6.51 µM [falling, partial curve].

`COC(=O)C1CCN(C(=O)c2cc3ccccc3oc2=O)CC1`: the cell number change is -10.5%.

With `COc1ccc(C(=O)c2ccc(Br)cc2)c2ccccc12`, the cell number change is -18.5%. Under setting [1], the half-maximal activity concentration (AC50) is 0.00461 µM [falling, full curve, poor fit].

Consider `Cc1cc(C(=O)NCc2ccco2)c2ccccc2n1`, for which the cell number change is 63.3%. The concentration at half-maximal activity (AC50) under setting [2] was 23.1 µM [rising, partial curve, poor fit].

As to `NC(=O)c1ccsc1NC(=O)COc1ccccc1`, the cell number change was 232%. In addition, the AC50 under setting [1] is 20.6 µM [rising, partial curve].

For the molecule `Cc1cc(=O)[nH]c2n[nH]c(-c3ccccc3)c12`, the cell number change was found to be 3.68%. Moreover, the half-maximal activity concentration (AC50) under setting [1] was 0.651 µM [falling, single point].

For the molecule `CCN(CC)c1ccc(N2C(=O)c3ccccc3C2=O)cc1`, the cell number change is 17.6%. Besides, under setting [1], the AC50 is 1.84 µM [rising, partial curve, poor fit].

As to `Cc1c(C(=O)NCCN2CCOCC2)oc2ccc(Br)cc12`, the cell number change amounted to 30.9%. For the same molecule, the AC50 under setting [2] is 16.4 µM [rising, single point]. The AC50 under setting [1] is 20.6 µM [rising, partial curve, poor fit].

For `CCN(CC(=O)Nc1ccc2c(c1)OCCO2)C(=O)CN1C(=O)NC(C)(c2ccc(C)cc2)C1=O` (stereo unspecified), the cell number change stood at 4.26%.

On to `CC(Sc1nncn1C)C(=O)Nc1ccc(N2CCCCC2)cc1` (stereo unspecified), for which the cell number change amounted to 2.53%. The AC50 under setting [1] is 16.4 µM [rising, single point].

In the case of `CCCNC(=O)c1onc(CSc2nc3ccccc3[nH]2)c1C(=O)NCCC`, the cell number change is -16.2%. In addition, under setting [1], the AC50 was 20.6 µM [falling, single point].

As to `C/C(=N\NC(=O)C1COc2ccccc2O1)c1ccc(Cl)s1` (stereo unspecified), the cell number change came out at 6.47%. Further, the AC50 under setting [2] was 6.51 µM [rising, single point]. Moreover, the AC50 under setting [1] is 29.1 µM [rising, single point].

For the molecule `CNC(=O)c1ccccc1S(=O)c1ccccc1COC(C)=O` (stereo unspecified), the cell number change was found to be 52%. Besides, the half-maximal activity concentration (AC50) under setting [2] was 16.4 µM [rising, single point]. Also, the AC50 under setting [1] was 14.6 µM [rising, partial curve].

Take `CC12C(=O)N(Cc3ccccc3)C(=O)C1C1C=CC2C1` (stereo unspecified): the cell number change came out at 2.37%.

For `O=C(NCc1ccc(F)cc1Cl)C1CC(=O)N(C2CCCCCCC2)C1` (stereo unspecified), the cell number change was determined as 11.2%. In addition, the AC50 under setting [1] was 29.1 µM [rising, single point].

For `CCCC(=O)N1CCN(c2ccc([N+](=O)[O-])cc2Cl)CC1`, the cell number change is -4.32%. In addition, the concentration at half-maximal activity (AC50) under setting [1] was 29.1 µM [falling, single point].

Take `O=C(NCC(c1ccco1)N1CCc2ccccc2C1)c1ccccc1Cl` (stereo unspecified): the cell number change turned out to be 32.4%.

`CCOc1ccccc1C(=O)Nc1nnc(SCC(=O)N2CCOCC2)s1`: the cell number change was 3.2%. Moreover, the AC50 under setting [1] is 0.731 µM [rising, full curve, poor fit].

As for `CC(C)Nc1ncnc2ccc(Br)cc12`, the cell number change is -62.1%. For the same molecule, under setting [2], the half-maximal activity concentration (AC50) was 5.8 µM [falling, full curve]. In addition, the concentration at half-maximal activity (AC50) under setting [1] is 16.4 µM [falling, partial curve].

Turning to `Cc1ccc(C)c(C(=O)Nc2nc3ccccc3[nH]2)c1`, the cell number change was -19%. In addition, under setting [1], the concentration at half-maximal activity (AC50) was 29.1 µM [falling, single point].

Consider `N#CCNC(=O)c1cccn1-c1ncc(C(F)(F)F)cc1Cl`, for which the cell number change is -6%.

On to `COCCCn1c(=O)c2ccccc2n(CC(=O)NCCC2=CCCCC2)c1=O`, for which the cell number change stood at 1.25%. The AC50 under setting [1] is 16.4 µM [falling, partial curve, poor fit].

Take `O=C(NCc1cccs1)c1cnc(Cl)c(Cl)c1`: the cell number change worked out at 49.2%. Under setting [2], the AC50 is 0.146 µM [falling, full curve, poor fit]. Moreover, the concentration at half-maximal activity (AC50) under setting [1] is 16.4 µM [rising, single point].
